For at least one compound, name, drawing or mass did not settle the structure.
Assay: Solubilization of itraconazole in glacial and aqueous acetic acid solvent (Example 2)
Type: physicochemical

## CCC(C)n1ncn(-c2ccc(N3CCN(c4ccc(OCC5COC(Cn6cncn6)(c6ccc(Cl)cc6Cl)O5)cc4)CC3)cc2)c1=O (racemic) [itraconazole]
20% acetic acid (v:v), dissolved in conc. acid, then diluted
  Dissolved Itraconazole %: 2.5 (diss. conc. acid, then dilute) %
40% acetic acid (v:v), dissolved in conc. acid, then diluted
  Dissolved Itraconazole %: 5 (diss. conc. acid, then dilute) %
75% acetic acid (v:v), dissolves freely on addition
  Dissolved Itraconazole %: >10 (dissolves freely on addition) %
100% acetic acid (v:v), dissolves freely on addition
  Dissolved Itraconazole %: >33 (dissolves freely on addition) %
